AC50 and cell number change data for 59 molecules are collected here from PubChem BioAssay AID2685 (National Center for Advancing Translational Sciences (NCATS), 2010).

In general, AC50 refers to the concentration at which the activity in the assay is half-maximal. A lower AC50 goes with activity at low concentration.

This assay is described as follows: qHTS Assay for Lipid Storage Modulators in Drosophila S3 Cells.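 As to cell number change: cells counted by Cell Tracker Red CMTPX staining in the red channel.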 Conditions: BODIPY lipid droplet fluorescence, 18-24 h; for cell number change: measured here: cell count max response, cells fed with added oleic acid. The essentials: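 Laser-scanning cytometry quantifies lipid droplet accumulation (500–530 nm total intensity; droplet/cell object ratio) in oleic acid-fed (400 uM added) Drosophila S3 cells treated with a concentration series. 20 uM Triacsin C defined 100% inhibition.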

The mark [1] stands for this setting: measured here: lipid fluorescence (Fed channel) AC50, cells fed with added oleic acid.
The mark [2] stands for this setting: measured here: cell number channel AC50, cells fed with added oleic acid.

SMILES strings stand for the structures. The list shows a part of the results. Shown are side measurements of this screen, not its main read-out; they come without a call. Most of these compounds were active or inconclusive in the main read-out, so they are no random draw. Words in brackets tell the shape of the fitted curve; partial curves, single points and poor fits give uncertain potencies.

`CC(=O)NCCOc1nc(N(C)C)nc(N2CCOCC2)n1`: the AC50 under setting [1] is 0.651 µM [falling, single point].
In the case of `C=CCn1c(=O)c(C(=O)NC(C)c2ccccc2)c(O)c2ccccc21` (stereo not drawn), the cell number change is -3.87%.
Take `COc1ccc(OC)c(-c2nnc(-c3ccc(C)o3)o2)c1`: the AC50 is, setting by setting: under setting [2], 6.51 µM [rising, single point]; under setting [1], 0.58 µM [falling, single point].
Consider `Cc1nc2c(c3c1[nH]c1ccccc13)C(O)CC(C)(C)C2` (stereo not drawn), for which the cell number change was -58.5%. Further, the AC50 under setting [2] was 18.4 µM [falling, single point]. Further, the AC50 under setting [1] was 7.31 µM [falling, partial curve].
Consider `COC(=O)CSc1nnc(Cc2cc(=O)[nH]c(=O)[nH]2)n1-c1cccc(OC)c1`, for which the cell number change is -3.58%. Further, the AC50 under setting [1] was 18.4 µM [falling, partial curve].
As for `CC(Oc1ccc(Cl)cc1Cl)C(=O)NCCCN1CCOCC1` (stereo not drawn), the cell number change was 4.35%. Also, the concentration at half-maximal activity (AC50) under setting [2] was 0.092 µM [falling, full curve, poor fit].
Regarding `O=S(=O)([N-]c1nc2ccccc2nc1-n1cc[n+](Cc2ccccc2)c1)c1ccc(Br)cc1`, the cell number change was determined as 18.6%.
For `O=C(O)CSc1cc(C(=O)c2ccccc2O)cn2c(=O)c3c(-c4ccccc4)csc3nc12`, the cell number change was determined as 9.61%.
The same measure, in the same setting: the value for `COc1ccc(OC)c(-c2csc(NC(=O)c3ccc4c(c3)OCO4)n2)c1` was 8.95%.
Turning to `N#Cc1ccc(/C=C2\CCn3c2nc2cc(C(=O)O)ccc2c3=O)cc1`, the cell number change came out at 11.8%. The AC50 under setting [1] is 0.447 µM [falling, full curve, poor fit].
Take `CCCn1c(C)cc(C(=O)COc2ncnc3sccc23)c1C`: the AC50 under setting [1] is 8.2 µM [rising, partial curve].
For `CCc1nn2c(=O)cc(N3CCN(c4cc(C)nc5ccccc45)CC3)nc2s1`, the cell number change is -6.53%. Further, the concentration at half-maximal activity (AC50) under setting [1] is 6.51 µM [rising, single point].
As to `CCc1ccccc1Nc1ncnc2ccccc12`, the cell number change was determined as 6.31%.
Regarding `CC(Sc1nc2ccccc2c(=O)n1C)C(=O)NC1CCCCC1C` (stereo not drawn), the cell number change is -86.5%. The half-maximal activity concentration (AC50) under setting [2] is 29.1 µM [falling, single point].
Consider `O=C(NCc1ccco1)c1ccc(Cl)c(S(=O)(=O)N2CCCC2)c1`, for which the cell number change was -26.3%. Besides, the AC50 under setting [1] was 0.58 µM [falling, full curve].
Regarding `CC1Cc2ccccc2N1C(=S)NC1CCCC1` (stereo not drawn), the cell number change was found to be 13.5%.
Regarding `NC(=O)COC(=O)CC12CC3CC(CC(Br)(C3)C1)C2`, the cell number change is 25.5%. Also, the AC50 under setting [1] is 0.355 µM [rising, full curve, poor fit].
In the case of `CC(=O)Nc1ccc(S(=O)(=O)NCC2CCC(C(=O)NC3CCCCCC3)CC2)cc1` (stereo not drawn), the cell number change was -28%. Moreover, the AC50 under setting [2] was 1.46 µM [falling, full curve, poor fit]. In addition, under setting [1], the AC50 is 2.59 µM [falling, full curve, poor fit].
Take `Cc1cc(NC(=O)CSc2nc(=O)n(CCCN(C)C)c3c2CCCC3)no1`: the AC50 under setting [1] is 6.51 µM [rising, partial curve, poor fit].
Take `NC(=O)c1cc(Br)cc(C2CCCCC2)c1O`: the cell number change was -61.3%. Moreover, under setting [2], the AC50 is 18.4 µM [falling, partial curve]. Besides, the AC50 under setting [1] was 20.6 µM [falling, single point].
With `Cc1cnc(CNC(=O)CC2C(=O)NCCN2Cc2ccccc2C(F)(F)F)cn1` (stereo not drawn), the cell number change worked out at 16.1%. The AC50 under setting [1] was 0.651 µM [rising, partial curve].
In the case of `Cc1cc(C)c(S(=O)(=O)N2CCN(C(=O)c3cc4ccccc4o3)CC2)c(C)c1`, the cell number change was 25%.
`COC(=O)C1C(=O)N2CCCSC2=C(C#N)C1c1cccs1` (stereo not drawn): the half-maximal activity concentration (AC50) under setting [1] is 0.461 µM [rising, partial curve, poor fit].
For `O=C(Cc1ccc(Cl)cc1)N/N=C/c1ccncc1`, the cell number change was -35.7%. For the same molecule, the AC50 under setting [2] is 29.1 µM [falling, single point]. The AC50 under setting [1] is 29.1 µM [falling, single point].
As to `O=C(Nc1ccc(Br)cc1)c1cccn1-c1ncc(C(F)(F)F)cc1Cl`, the cell number change is 12.4%. For the same molecule, the AC50 under setting [1] was 0.651 µM [falling, full curve].
`Cc1ccc(N(CC(=O)NC2CCCCC2)C(=O)CNC(=O)c2ccco2)cc1C`: the cell number change was -20%. Further, the AC50 under setting [1] is 29.1 µM [falling, single point].
As for `O=C(N1CCOCC1)N1CCN(S(=O)(=O)N2CCCCC2)CC1`, the cell number change is -17.5%. Further, under setting [2], the AC50 was 0.00731 µM [falling, full curve, poor fit].
Consider `CCCCc1nnc(NC(=O)C23CC4CC(CC(NC(C)=O)(C4)C2)C3)s1`, for which the cell number change is 8.21%. Besides, under setting [2], the half-maximal activity concentration (AC50) was 2.59 µM [rising, partial curve, poor fit].
`COc1ccc(-c2nc(CN3CCC(C(=O)NC4CC4)CC3)c(C)o2)cc1OC`: the cell number change is 7.95%. In addition, under setting [1], the AC50 was 3.26 µM [rising, full curve].
With `COc1ccc(C(=O)N/N=C(\C)Cn2nc([N+](=O)[O-])cc2C)cc1`, the cell number change worked out at 21.5%. Further, under setting [1], the AC50 was 2.06 µM [rising, partial curve].
As for `Cc1cc(C)nc(SCc2nnc(SCc3ccc([N+](=O)[O-])cc3)n2Cc2ccco2)n1`, the cell number change was found to be 18.5%. Also, under setting [2], the AC50 was 1.3 µM [falling, full curve]. Besides, the AC50 under setting [1] is 3.26 µM [rising, full curve].
For the molecule `COc1ccc(C(CC(=O)NCc2ccco2)c2ccc(F)cc2)cc1` (stereo not drawn), the cell number change was -5.22%. Moreover, the concentration at half-maximal activity (AC50) under setting [1] was 0.731 µM [rising, single point].
Regarding `COc1ccc(/C=N/Nc2ncnc3sc4c(c23)CCCC4)cc1O`, the cell number change was -9.51%. Also, under setting [2], the AC50 was 6.51 µM [rising, single point]. In addition, the AC50 under setting [1] was 7.31 µM [rising, partial curve, poor fit].
As to `O=C(COc1ccc(-n2cnnn2)cc1)NC1CCCCC1`, the cell number change stood at 2.26%.
`Cc1ccccc1OCCCCN1CCCCC1`: the cell number change stood at 32.6%. Further, the AC50 under setting [1] was 0.58 µM [falling, single point].
Regarding `CN(C)Cc1nc2ccccc2c(=O)n1Cc1nc(-c2cccc([N+](=O)[O-])c2)cs1`, the cell number change came to 12.4%. In addition, the half-maximal activity concentration (AC50) under setting [2] is 0.00461 µM [rising, full curve, poor fit]. Under setting [1], the AC50 is 0.0082 µM [rising, full curve, poor fit].
For the molecule `O=C(Cn1cnc2ccccc2c1=O)Nc1cccc(-c2nnc3n2CCCCC3)c1`, under setting [1], the AC50 is 6.51 µM [rising, partial curve, poor fit].
As to `CCOC(=O)c1c(C)[nH]c(C(=O)CSc2nnc(CC(C)c3ccccc3)o2)c1C` (stereo not drawn), the cell number change is 0.856%. Besides, the AC50 under setting [1] was 0.0231 µM [rising, full curve].
For the molecule `CCC(C)c1ccccc1N1CC(C(=O)Nc2ccc(C)c(S(=O)(=O)N3CCOCC3)c2)CC1=O` (stereo not drawn), the cell number change is 9.16%. Further, under setting [1], the AC50 is 14.6 µM [rising, single point].
Take `CCCc1c(C)c2c(C)[nH]nc2oc1=O`: the cell number change amounted to 23.2%. Further, the concentration at half-maximal activity (AC50) under setting [1] is 9.2 µM [rising, partial curve, poor fit].
Regarding `C=CCc1cc(OC)ccc1OCCN1CC(C)OC(C)C1` (stereo not drawn), the cell number change amounted to 9.09%. The half-maximal activity concentration (AC50) under setting [1] is 1.64 µM [rising, partial curve].
With `O=C(Cc1nc2ccccc2[nH]1)c1cccc([N+](=O)[O-])c1`, the cell number change was -8.14%. In addition, the AC50 under setting [1] was 16.4 µM [falling, single point].
Regarding `CC(C)CN(C(=O)CN1CCN(c2ccccc2O)CC1)c1c(N)n(CC(C)C)c(=O)[nH]c1=O`, the cell number change is -0.326%. In addition, the AC50 under setting [1] is 9.2 µM [falling, partial curve, poor fit].
Regarding `COc1ccccc1C(=O)NCCn1cc(SCC(=O)Nc2nnc(C)s2)c2ccccc21`, the cell number change came to 3.57%. Further, the AC50 under setting [1] was 5.8 µM [rising, partial curve].
Take `CCC(C)(C)n1nnnc1C(c1ccc(OC)c(OC)c1)N1CCN(C(=O)c2ccco2)CC1` (stereo not drawn): the cell number change was found to be 1.67%. Besides, the AC50 under setting [1] was 29.1 µM [rising, partial curve].
As to `CC1(c2ccccc2)NC(=O)N(CC(=O)NCC2CCCO2)C1=O` (stereo not drawn), the cell number change was -28.3%. The AC50 under setting [2] was 0.461 µM [rising, single point]. The AC50 under setting [1] is 29.1 µM [falling, single point].
Turning to `N#Cc1ccccc1S(=O)(=O)N1CCN(C(=O)CN2CCCC2c2cccs2)CC1` (stereo not drawn), the cell number change was -0.743%.
For `COc1ccc(NC(=O)CSc2nnnn2C2CCCCC2)c(OC)c1`, the cell number change is 6.41%. The AC50 under setting [2] was 0.146 µM [rising, full curve, poor fit].
As to `Cc1ccc(C(=O)N(CN2CCCC2=O)c2ccc(F)cc2)cc1`, the cell number change is 25.6%. For the same molecule, under setting [2], the AC50 was 0.259 µM [rising, full curve, poor fit]. Besides, the AC50 under setting [1] is 6.51 µM [rising, single point].
On to `CCOC(=O)C1CCN(C(=O)c2sc3nc(-c4ccc(F)cc4)cn3c2C)CC1`, for which the cell number change stood at 5.35%. For the same molecule, the AC50 under setting [1] is 13 µM [rising, single point].
As for `COCCNC(=O)c1ccc2c(=O)n(CCOC)c(=O)[nH]c2c1`, the cell number change is -51.1%. Further, the AC50 under setting [2] is 25.9 µM [falling, partial curve, poor fit]. For the same molecule, under setting [1], the AC50 is 29.1 µM [falling, partial curve, poor fit].
Regarding `Cc1cccc(OCCn2nnc3ccccc32)c1C`, the cell number change was -18.5%. The AC50 under setting [1] was 2.06 µM [rising, single point].
Regarding `COC(=O)c1c(NC(NC(=O)c2ccccc2)(C(F)(F)F)C(F)(F)F)sc2c1CCN(C)C2`, the concentration at half-maximal activity (AC50) under setting [1] is 0.058 µM [falling, full curve].
Turning to `Cc1ccc(CN2CC(C(=O)NCC(=O)Nc3c(C)cccc3C)CC2=O)cc1` (stereo not drawn), the half-maximal activity concentration (AC50) under setting [2] was 6.51 µM [rising, single point].
Take `CCN(CC)Cc1cc(C(C)=O)ccc1O`: the cell number change was -37.9%. Under setting [2], the AC50 is 4.61 µM [falling, full curve]. Further, under setting [1], the AC50 is 0.82 µM [falling, full curve].
As for `Cc1cc(=O)n2nc(N3CCCC3C(=O)Nc3ccccc3C)sc2n1` (stereo not drawn), the cell number change amounted to 11.5%.
In the case of `O=C(CSc1nnnn1-c1ccc(O)cc1)N1N=C(c2ccc3ccccc3c2)CC1c1ccccc1` (stereo not drawn), the cell number change was determined as 9.87%. In addition, under setting [1], the AC50 was 25.9 µM [rising, partial curve].
`CCn1c(SCCN2CCOCC2)nc2c1c(=O)n(C)c(=O)n2C`: the cell number change was found to be 5.47%. Also, under setting [2], the AC50 was 3.26 µM [rising, partial curve, poor fit]. Moreover, under setting [1], the half-maximal activity concentration (AC50) was 0.58 µM [rising, single point].
On to `CCOC(=O)N1N=C(C)CC1(O)c1ccc(Cl)cc1` (stereo not drawn), for which the cell number change is -0.911%. Under setting [1], the AC50 is 0.092 µM [falling, full curve, poor fit].
